Results reported in patent US20250215004A1, “AZOLO COMPOUNDS FOR TREATMENT OF FIBROTIC DISEASES” (GEORG-AUGUST-UNIVERSITÄT GÖTTINGEN STIFTUNG ÖFFENTLICHEN …, priority 2022, published 2025).
Some entries share one result that the patent states for a list of compounds.

Test system: TK173 cells
Assay: ELISA to detect secreted type I collagen (Pro-Collagen I alpha 1) in conditioned media of TGFβ1-treated TK173 fibroblasts
Type: cell-based, human
Details: 10 ng/ml TGFβ1 for 5 days, then compound 48 hours, Pro-Collagen I alpha 1 ELISA of conditioned media
Protocol: Compound reconstitution. Prior to treatment, each compound was used from a stock solution of a concentration of 10 mg/ml in DMSO. Final concentration of DMSO in cell cultures was kept below 0.1%.
Cell culture and treatment. […]
Conditioned media containing the secretome of TK173 fibroblast were harvested after 48 hours of compound treatments. Secretion of pro-Collagen 1 was assessed with Human Pro-Collagen I alpha 1 DuoSet ELISA (R&D Systems, USA). […] Finally, signals were measured at 450 nm absorbance by PHOmo Microplate Reader (Autobio, China). The amount of pro-collagen 1 antibody fusion was quantified by extrapolating the signal into a linear range of a pro-collagen 1 standard curve. […]

Fc1cccc2c1cnn1nnnc21 [Compound 59b, 7-fluorotetrazolo[5,1-a]phthalazine]
IC50, concentration where the TGFβ-stimulated collagen secretion is attenuated by 50%: < 10 µg/mL
